In the test the target is HA-p53 (UniProt P04637). As to the kind of experiment: co-IP; 293T cells co-transfected with Flag-RND1 and HA-p53 for 48 h; lysed in IP buffer (50 mM Tris-Cl pH 8.0, 0.5 mM EDTA, 150 mM NaCl, 1% NP-40); IP with anti-Flag, anti-HA or IgG and Protein G Agarose overnight at 4 °C; blotted with anti-RND1 and anti-p53.

Results are given in words; binding and its absence hold for the method and conditions named. In cells and extracts the contact can be indirect. Some binding calls cover weakened binding; strength is not graded here. Tags and fused reporters may be left off the sequences shown.

B1: Flag-RND1 (Rho family GTPase 1) (protein, UniProt Q92730 1-232)
chain: MKERRAPQPVVARCKLVLVGDVQCGKTAMLQVLAKDCYPETYVPTVFENYTACLETEEQRVELSLWDTSGSPYYDNVRPLCYSDSDAVLLCFDISRPETVDSALKKWRTEILDYCPSTRVLLIGCKTDLRTDLSTLMELSHQKQAPISYEQGCAIAKQLGAEIYLEGSAFTSEKSIHSIFRTASMLCLNKPSPLPQKSPVRSLSKRLLHLPSRSELISSTFKKEKAKSCSIM
For the molecule B1, the binding entry was “binds”.
